From US20080038734
No signal at the amounts used counts as a negative. The exact form of at least one protein or probe is not confirmed.

By UniProt entry, the sequences of proteins in these tests, tags left out. Where a name states a change or a piece, a line headed by the entry shows the natural chain unless it says otherwise.
UniProt O93634: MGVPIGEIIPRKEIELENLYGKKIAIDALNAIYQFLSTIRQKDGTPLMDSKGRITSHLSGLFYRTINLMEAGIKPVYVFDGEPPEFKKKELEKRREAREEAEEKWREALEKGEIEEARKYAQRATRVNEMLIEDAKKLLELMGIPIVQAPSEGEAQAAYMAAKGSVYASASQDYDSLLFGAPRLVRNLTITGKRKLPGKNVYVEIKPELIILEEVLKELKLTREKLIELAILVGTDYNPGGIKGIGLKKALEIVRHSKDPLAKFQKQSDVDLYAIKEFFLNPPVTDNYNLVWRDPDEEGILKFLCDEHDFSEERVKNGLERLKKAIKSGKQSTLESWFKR

Molecular target: Pfu FEN nuclease (Pyrococcus furiosus) (UniProt O93634)
Test: enzyme reaction in vitro
Conditions: 2'-OMe at probe positions +2 to +16, purified recombinant protein, folded or branched DNA
[1] = label: BHQ on +1, FAM on 3' end of probe

ACCGGTGACATTTACCTGCTCAACCTGGCC / TGCAGGGCCAGGTTGAGCAGGTAAATGTCAGGATACCACTTCAGCTTTTTGCAG / CTGCAAAAAGCTGAAGTGGTAT [1Q3F 2'-OMe probe/target/F-2 upstream]
activity on this sequence [1]: not active

ACCGGTGACATTTACCTGCTCAACCTGGCC / TGCAGGGCCAGGTTGAGCAGGTAAATGTCAGGATACCACTTCAGCTTTTTGCAG / CTGCAAAAAGCTGAAGTGGTATA [1Q5F 2'-OMe probe/target/F-1Amm upstream]
activity on this sequence (label: BHQ on +1, FAM on 5' end of probe): active

ACCGGTGACATTTACCTGCTCAACCTGGCC / TGCAGGGCCAGGTTGAGCAGGTAAATGTCAGGATACCACTTCAGCTTTTTGCAG / CTGCAAAAAGCTGAAGTGGTATC [1Q3F 2'-OMe probe/target/F-1 upstream]
activity on this sequence [1]: not active

ACCGGTGACATTTACCTGCTCAACCTGGCC / TGCAGGGCCAGGTTGAGCAGGTAAATGTCAGGATACCACTTCAGCTTTTTGCAG / CTGCAAAAAGCTGAAGTGGTATCC [1Q3F 2'-OMe probe/target/FWD upstream]
activity on this sequence [1]: not active

ACCGGTGACATTTACCTGCTCAACCTGGCC / TGCAGGGCCAGGTTGAGCAGGTAAATGTCAGGATACCACTTCAGCTTTTTGCAG / CTGCAAAAAGCTGAAGTGGTATCCT [1Q3F 2'-OMe probe/target/F+1 upstream]
activity on this sequence [1]: not active

ACCGGTGACATTTACCTGCTCAACCTGGCC / TGCAGGGCCAGGTTGAGCAGGTAAATGTCAGGATACCACTTCAGCTTTTTGCAG / CTGCAAAAAGCTGAAGTGGTATCCTG [1Q3F 2'-OMe probe/target/F+2 upstream]
activity on this sequence [1]: not active

ACCGGTGACATTTACCTGCTCAACCTGGCC / TGCAGGGCCAGGTTGAGCAGGTAAATGTCAGGATACCACTTCAGCTTTTTGCAG / CTGCAAAAAGCTGAAGTGGTATCCTGA [1Q3F 2'-OMe probe/target/F+3 upstream]
activity on this sequence [1]: not active

ACCGGTGACATTTACCTGCTCAACCTGGCC / TGCAGGGCCAGGTTGAGCAGGTAAATGTCAGGATACCACTTCAGCTTTTTGCAG / CTGCAAAAAGCTGAAGTGGTATCCTGAC [1Q3F 2'-OMe probe/target/F+4 upstream]
activity on this sequence [1]: not active
